The values below come from the supplement of paper PMC10849652.

Protein sequences, listed by entry. Tags and fused reporters are not part of them. Lines headed by an entry give the natural chain unless they say otherwise; changes in a name come on top.
UniProt Q13546: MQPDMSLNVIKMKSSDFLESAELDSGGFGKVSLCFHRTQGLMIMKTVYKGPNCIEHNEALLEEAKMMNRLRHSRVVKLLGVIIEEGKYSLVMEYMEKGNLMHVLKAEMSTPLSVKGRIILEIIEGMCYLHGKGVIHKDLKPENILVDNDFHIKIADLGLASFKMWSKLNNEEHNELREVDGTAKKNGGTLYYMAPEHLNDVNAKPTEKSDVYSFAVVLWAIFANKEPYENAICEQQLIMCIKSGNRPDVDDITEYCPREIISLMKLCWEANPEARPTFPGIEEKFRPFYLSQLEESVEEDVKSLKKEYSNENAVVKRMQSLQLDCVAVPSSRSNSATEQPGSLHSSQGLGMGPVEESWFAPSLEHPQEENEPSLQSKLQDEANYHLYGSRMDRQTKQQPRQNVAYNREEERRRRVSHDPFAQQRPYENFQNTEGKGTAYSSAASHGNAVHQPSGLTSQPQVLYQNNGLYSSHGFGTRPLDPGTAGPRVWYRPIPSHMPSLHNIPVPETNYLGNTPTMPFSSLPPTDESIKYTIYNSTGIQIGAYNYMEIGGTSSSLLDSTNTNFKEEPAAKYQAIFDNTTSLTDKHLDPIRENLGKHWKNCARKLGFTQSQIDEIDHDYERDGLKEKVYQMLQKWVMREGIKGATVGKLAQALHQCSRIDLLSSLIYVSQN
UniProt O75695: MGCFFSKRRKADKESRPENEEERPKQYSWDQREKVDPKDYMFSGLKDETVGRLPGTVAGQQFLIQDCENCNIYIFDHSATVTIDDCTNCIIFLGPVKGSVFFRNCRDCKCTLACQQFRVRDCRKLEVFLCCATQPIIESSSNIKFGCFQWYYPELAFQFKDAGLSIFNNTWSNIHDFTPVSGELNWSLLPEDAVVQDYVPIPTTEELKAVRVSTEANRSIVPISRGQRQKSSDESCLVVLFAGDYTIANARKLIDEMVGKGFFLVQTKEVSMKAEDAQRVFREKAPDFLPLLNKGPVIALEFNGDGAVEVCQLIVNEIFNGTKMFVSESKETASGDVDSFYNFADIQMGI
UniProt Q96A37: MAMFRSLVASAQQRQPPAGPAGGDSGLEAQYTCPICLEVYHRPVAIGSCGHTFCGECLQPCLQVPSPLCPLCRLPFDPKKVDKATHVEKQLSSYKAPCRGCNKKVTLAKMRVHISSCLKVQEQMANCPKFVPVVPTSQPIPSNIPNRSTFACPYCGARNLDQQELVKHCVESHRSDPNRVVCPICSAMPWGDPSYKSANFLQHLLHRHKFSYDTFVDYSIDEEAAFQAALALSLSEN
UniProt O14730: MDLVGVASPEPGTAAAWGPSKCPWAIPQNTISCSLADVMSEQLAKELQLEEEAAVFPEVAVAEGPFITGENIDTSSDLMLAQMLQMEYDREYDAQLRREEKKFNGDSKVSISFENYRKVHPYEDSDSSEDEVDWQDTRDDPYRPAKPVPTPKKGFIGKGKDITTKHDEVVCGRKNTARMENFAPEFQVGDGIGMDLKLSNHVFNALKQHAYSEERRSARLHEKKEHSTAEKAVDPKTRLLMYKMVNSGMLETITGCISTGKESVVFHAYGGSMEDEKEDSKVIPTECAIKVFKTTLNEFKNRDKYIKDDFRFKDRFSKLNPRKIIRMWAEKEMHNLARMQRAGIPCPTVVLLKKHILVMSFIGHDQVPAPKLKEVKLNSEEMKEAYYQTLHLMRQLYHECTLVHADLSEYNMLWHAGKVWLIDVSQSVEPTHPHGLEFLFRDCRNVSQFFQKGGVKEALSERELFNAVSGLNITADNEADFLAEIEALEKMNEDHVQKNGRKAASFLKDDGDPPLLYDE
UniProt Q9NTX7: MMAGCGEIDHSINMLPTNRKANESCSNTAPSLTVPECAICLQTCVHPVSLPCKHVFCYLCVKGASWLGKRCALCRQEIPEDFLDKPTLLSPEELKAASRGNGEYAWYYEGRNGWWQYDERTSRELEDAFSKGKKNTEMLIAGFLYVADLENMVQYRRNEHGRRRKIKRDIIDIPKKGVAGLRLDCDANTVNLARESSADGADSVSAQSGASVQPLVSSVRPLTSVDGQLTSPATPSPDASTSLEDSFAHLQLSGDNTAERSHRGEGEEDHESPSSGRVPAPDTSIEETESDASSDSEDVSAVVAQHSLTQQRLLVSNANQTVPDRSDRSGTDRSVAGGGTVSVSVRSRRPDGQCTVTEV
UniProt Q01974, whole entry, looked up: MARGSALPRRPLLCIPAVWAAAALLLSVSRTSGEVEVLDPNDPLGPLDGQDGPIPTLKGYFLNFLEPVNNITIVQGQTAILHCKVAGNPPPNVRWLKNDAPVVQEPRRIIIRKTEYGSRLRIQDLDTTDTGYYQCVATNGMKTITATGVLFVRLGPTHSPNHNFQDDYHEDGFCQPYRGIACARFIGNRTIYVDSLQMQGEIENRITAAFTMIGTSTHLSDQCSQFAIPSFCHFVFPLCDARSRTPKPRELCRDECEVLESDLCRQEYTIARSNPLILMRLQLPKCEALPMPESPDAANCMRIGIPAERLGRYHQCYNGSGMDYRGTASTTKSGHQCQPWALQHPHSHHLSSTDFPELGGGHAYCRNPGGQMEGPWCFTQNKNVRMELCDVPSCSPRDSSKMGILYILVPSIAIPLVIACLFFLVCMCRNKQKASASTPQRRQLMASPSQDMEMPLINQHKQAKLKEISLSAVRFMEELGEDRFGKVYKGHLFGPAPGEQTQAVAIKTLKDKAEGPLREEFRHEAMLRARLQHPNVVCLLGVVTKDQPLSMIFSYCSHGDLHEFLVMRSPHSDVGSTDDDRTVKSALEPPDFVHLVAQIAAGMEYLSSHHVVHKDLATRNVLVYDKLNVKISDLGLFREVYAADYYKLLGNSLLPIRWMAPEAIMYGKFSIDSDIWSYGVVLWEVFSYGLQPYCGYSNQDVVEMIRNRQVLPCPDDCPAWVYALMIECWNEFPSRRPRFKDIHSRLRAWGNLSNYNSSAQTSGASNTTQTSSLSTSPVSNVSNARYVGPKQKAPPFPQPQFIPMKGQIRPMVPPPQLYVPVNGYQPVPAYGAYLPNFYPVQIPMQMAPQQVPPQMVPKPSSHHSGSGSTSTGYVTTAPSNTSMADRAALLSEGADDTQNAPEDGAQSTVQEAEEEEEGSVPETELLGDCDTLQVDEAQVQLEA
UniProt Q9H6T3, whole entry, looked up: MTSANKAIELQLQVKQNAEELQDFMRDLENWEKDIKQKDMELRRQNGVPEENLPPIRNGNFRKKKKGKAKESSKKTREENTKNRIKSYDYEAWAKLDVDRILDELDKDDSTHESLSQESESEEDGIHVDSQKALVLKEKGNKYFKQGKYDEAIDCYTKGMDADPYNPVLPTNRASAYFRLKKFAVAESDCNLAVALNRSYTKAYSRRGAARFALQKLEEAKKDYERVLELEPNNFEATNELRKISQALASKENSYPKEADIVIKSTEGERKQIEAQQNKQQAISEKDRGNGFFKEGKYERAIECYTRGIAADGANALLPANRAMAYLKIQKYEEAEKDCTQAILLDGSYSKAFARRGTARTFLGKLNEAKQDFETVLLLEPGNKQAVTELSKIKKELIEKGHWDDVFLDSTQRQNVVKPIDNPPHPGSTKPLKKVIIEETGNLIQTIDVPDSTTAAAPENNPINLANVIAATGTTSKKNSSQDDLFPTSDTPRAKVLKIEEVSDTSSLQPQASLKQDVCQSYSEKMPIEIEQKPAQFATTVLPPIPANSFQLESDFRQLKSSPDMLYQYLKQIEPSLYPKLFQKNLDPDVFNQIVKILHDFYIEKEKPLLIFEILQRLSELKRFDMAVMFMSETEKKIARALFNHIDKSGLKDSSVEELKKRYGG
UniProt O43353, whole entry, looked up: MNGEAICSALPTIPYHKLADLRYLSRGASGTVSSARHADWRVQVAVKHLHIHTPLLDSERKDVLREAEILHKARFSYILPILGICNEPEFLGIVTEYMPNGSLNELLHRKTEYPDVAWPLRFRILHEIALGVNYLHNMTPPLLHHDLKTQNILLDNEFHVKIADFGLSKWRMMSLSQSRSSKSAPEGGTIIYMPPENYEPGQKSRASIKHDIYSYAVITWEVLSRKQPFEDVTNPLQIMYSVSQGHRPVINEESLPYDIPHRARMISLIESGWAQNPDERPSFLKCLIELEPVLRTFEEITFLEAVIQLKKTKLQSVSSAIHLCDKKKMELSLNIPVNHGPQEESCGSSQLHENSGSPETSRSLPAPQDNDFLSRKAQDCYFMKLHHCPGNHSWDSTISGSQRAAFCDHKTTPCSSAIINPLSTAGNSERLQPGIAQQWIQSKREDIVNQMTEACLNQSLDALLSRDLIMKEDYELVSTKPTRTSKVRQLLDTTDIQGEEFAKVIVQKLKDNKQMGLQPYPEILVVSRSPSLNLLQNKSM
UniProt Q9BV68: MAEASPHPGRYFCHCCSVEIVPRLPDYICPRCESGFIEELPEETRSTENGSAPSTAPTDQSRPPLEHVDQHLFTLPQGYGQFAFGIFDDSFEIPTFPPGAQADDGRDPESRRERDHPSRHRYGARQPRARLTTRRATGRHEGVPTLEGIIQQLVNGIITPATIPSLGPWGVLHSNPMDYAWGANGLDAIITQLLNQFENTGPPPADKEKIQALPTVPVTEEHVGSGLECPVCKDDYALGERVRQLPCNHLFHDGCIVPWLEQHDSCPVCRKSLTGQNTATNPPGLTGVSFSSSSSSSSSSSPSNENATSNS
UniProt Q9UBS8: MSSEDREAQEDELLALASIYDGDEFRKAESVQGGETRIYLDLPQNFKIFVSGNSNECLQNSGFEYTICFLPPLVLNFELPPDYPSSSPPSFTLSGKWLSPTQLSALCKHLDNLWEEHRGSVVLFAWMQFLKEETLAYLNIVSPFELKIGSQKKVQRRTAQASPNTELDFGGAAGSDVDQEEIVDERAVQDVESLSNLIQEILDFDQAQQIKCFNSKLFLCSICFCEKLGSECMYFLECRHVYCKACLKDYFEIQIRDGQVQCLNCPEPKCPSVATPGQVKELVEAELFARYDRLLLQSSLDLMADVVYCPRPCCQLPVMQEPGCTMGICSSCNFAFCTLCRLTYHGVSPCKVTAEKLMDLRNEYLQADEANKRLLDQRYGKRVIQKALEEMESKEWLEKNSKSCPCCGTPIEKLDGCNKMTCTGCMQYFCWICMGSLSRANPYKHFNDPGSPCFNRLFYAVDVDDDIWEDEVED
UniProt Q8IYW5, whole entry, looked up: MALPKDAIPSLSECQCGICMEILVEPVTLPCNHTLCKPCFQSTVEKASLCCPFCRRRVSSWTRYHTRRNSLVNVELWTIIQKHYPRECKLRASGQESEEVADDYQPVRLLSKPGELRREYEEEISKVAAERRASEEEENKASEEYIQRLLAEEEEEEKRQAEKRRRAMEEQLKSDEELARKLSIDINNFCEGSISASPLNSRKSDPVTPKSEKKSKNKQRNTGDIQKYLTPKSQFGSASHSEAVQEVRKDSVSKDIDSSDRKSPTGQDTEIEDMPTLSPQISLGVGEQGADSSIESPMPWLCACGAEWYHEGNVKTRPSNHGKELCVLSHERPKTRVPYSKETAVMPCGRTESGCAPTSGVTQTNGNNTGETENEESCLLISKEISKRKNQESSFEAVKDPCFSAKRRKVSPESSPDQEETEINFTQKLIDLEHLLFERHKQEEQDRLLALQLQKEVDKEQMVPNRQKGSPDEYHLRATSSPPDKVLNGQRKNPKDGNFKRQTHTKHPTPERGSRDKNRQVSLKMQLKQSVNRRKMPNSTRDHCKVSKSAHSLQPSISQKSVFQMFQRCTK
UniProt Q9H7B2: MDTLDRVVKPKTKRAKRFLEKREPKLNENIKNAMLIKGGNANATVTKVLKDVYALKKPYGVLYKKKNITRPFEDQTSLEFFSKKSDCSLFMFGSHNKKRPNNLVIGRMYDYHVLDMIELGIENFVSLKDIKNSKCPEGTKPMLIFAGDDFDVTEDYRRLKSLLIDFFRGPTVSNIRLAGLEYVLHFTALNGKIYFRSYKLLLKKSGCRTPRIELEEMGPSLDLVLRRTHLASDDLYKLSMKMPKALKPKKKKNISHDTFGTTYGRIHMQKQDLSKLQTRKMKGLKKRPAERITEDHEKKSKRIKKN
UniProt Q96TC7: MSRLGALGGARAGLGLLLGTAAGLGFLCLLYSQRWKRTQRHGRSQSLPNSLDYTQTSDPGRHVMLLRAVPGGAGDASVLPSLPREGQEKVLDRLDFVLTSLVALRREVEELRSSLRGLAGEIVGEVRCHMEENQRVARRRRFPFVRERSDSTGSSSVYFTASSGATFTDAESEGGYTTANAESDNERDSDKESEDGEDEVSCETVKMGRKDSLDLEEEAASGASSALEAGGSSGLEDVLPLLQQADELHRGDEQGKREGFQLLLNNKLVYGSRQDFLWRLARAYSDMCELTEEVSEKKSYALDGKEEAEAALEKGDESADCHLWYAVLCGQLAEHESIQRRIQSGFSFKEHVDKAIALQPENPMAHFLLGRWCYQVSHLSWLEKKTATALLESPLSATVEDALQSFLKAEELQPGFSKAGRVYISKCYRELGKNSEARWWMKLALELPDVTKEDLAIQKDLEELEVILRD

The other results are listed elsewhere or left out.

Compound in this assay: COc1cc2nc(-c3cc(F)ccc3O)nc(N[C@@H]3CNC[C@H]3C(C)(C)O)c2cc1OC
In words: log2 fold change, soluble protein after heating vs DMSO (PISA); higher = thermal stabilisation; K562 lysate, 10 uM; active = over 0.2 and 3.5 SD of the protein, either way, in both replicates (recomputed). In a few lines: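 Dounce homogenisation of K562 pellets in PBS pH 7.4 with 1 mM MgCl2 produced a crude extract, used at 1 mg/mL protein. Exposure to 10 μM compound lasted 30 min, and aliquots were then heated for 3 min across 48°C-58°C, pooled and brought to 0.5% NP-40 at 4°C. The supernatant after 21,000xg for 90 min was quantified by TMTpro 16plex LC-MS/MS with channel sums equalised. Duplicate values are given as log-two fold change in thermal stability relative to solvent controls.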
Take RPL36 (UniProt Q9Y3U8): the log2 fold change was inactive: -0.001.
On to RPL29 (UniProt P47914), for which the log2 fold change is inactive: -0.003.
With RIPK1 (UniProt Q13546), the log2 fold change is inactive: -0.016.
RP2 (UniProt O75695): the log2 fold change was inactive: -0.015.
As for RNF166 (UniProt Q96A37), the log2 fold change is inactive: -0.165.
With RPL10A (UniProt P62906) the figure was inactive: 0.009; with RIOK3 (UniProt O14730), inactive: 0.
With RNF146 (UniProt Q9NTX7) the figure was inactive: -0.001.
Take ROR2 (UniProt Q01974): the log2 fold change is inactive: 0.026.
Take RPL27 (UniProt P61353): the log2 fold change was inactive: 0.006.
With RPAP3 (UniProt Q9H6T3) the figure was inactive: 0.004.
With RIPK2 (UniProt O43353) the figure was inactive: -0.009; with RPL35 (UniProt P42766), inactive: -0.054; with ROCK1 (UniProt Q13464), inactive: 0.022.
With RNF126 (UniProt Q9BV68) the figure was inactive: -0.019; with RPL18 (UniProt Q07020), inactive: -0.021; with RPL34 (UniProt P49207), inactive: -0.015.
Take RPL13A (UniProt P40429): the log2 fold change is inactive: 0.023.
With RNF14 (UniProt Q9UBS8) the figure was inactive: 0.03; with RNF168 (UniProt Q8IYW5), inactive: -0.043.
With RPL3 (UniProt P39023) the figure was inactive: -0.019; with RPF2 (UniProt Q9H7B2), inactive: -0.027.
With RMDN3 (UniProt Q96TC7) the figure was inactive: 0.014; with RPL14 (UniProt P50914), inactive: -0.019.
